Measured values published in paper PMC3597501 (2013).
These are yes or no findings as the source states them, for the method shown. For some of these results: In cells and extracts the contact can be indirect. Some binding calls cover weakened binding; strength is not graded here. For some of these results: Tags and fused reporters may be left off the sequences shown.

Columns and labels:
[1] = target: T1, Taihu Dwarf1 (TUD1), full length, BiFC fusion (rice (O. sativa)) (UniProt Q10PI9); test: split reporter; BiFC in rice protoplasts; full-length TUD1 and D1 co-expressed; reconstituted CFP fluorescence
T1 sequence: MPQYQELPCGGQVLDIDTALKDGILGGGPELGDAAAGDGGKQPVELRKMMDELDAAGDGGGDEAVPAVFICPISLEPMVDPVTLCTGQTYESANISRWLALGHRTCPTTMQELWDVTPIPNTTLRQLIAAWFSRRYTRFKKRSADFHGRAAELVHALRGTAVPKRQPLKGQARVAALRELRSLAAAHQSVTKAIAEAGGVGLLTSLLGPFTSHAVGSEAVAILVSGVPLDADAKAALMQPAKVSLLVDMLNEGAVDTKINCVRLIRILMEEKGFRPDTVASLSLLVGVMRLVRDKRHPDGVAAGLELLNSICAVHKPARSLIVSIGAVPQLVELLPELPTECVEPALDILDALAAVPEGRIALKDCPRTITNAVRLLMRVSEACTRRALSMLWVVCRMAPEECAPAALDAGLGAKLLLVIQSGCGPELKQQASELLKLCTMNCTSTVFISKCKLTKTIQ

[2] = target: T2, TUD1, full length, in pGBKT7 (yeast two-hybrid) (rice (O. sativa)) (UniProt Q10PI9); test: two-hybrid; yeast AH109; pGBKT7-TUD1 with pGADT7-D1; three days on selective medium
T2 sequence: T1 sequence

[3] = target: T3, GST-TUD1 (rice (O. sativa)) (UniProt Q10PI9); test: pull-down; GST pull-down; purified His-D1 incubated with GDP for 2 hours before GST-TUD1 was added; precipitated with glutathione-agarose beads; blots with anti-His and anti-GST; both purified
T3 sequence: T1 sequence

[4] = target: T3, GST-TUD1 (rice (O. sativa)); test: pull-down; GST pull-down; purified His-D1 incubated with GTPγS for 2 hours before GST-TUD1 was added; precipitated with glutathione-agarose beads; blots with anti-His and anti-GST; both purified

B1: Heterotrimeric G protein alpha subunit D1/RGA1, full length, BiFC fusion (protein, UniProt Q0DJ33 1-380)
chain: MGSSCSRSHSLSEAETTKNAKSADIDRRILQETKAEQHIHKLLLLGAGESGKSTIFKQIKLLFQTGFDEAELRSYTSVIHANVYQTIKILYEGAKELSQVESDSSKYVISPDNQEIGEKLSDIDGRLDYPLLNKELVLDVKRLWQDPAIQETYLRGSILQLPDCAQYFMENLDRLAEAGYVPTKEDVLYARVRTNGVVQIQFSPVGENKRGGEVYRLYDVGGQRNERRKWIHLFEGVNAVIFCAAISEYDQMLFEDETKNRMMETKELFDWVLKQRCFEKTSFILFLNKFDIFEKKIQKVPLSVCEWFKDYQPIAPGKQEVEHAYEFVKKKFEELYFQSSKPDRVDRVFKIYRTTALDQKLVKKTFKLIDESMRRSREGT
**Q.** B1 was tested. Which binding [1] did it give?
**A.** binds

B2: D1, full length, in pGADT7 (yeast two-hybrid) (protein, UniProt Q0DJ33 1-380)
chain: B1 chain
**Q.** For B2, which binding [2] is on record?
**A.** binds

B3: D1-tagged His (purified D1 fusion protein) (protein)
chain: B1 chain
**Q.** With B3 as the binder, how does the binding [3] read?
**A.** binds

**Q.** What about the binding [4] of the same binder?
**A.** binds
